Test results published in paper PMC6800482.
Results are given in words; binding and its absence hold for the method and conditions named. Binding seen in cells or lysates may run through a third protein. Some results given as binding are weak or reduced against the parent protein; the word gives no strength. Sequences can lack the tags named with a protein.

Chains of the proteins cited; added tags and fusions are not shown.
UniProt P33334: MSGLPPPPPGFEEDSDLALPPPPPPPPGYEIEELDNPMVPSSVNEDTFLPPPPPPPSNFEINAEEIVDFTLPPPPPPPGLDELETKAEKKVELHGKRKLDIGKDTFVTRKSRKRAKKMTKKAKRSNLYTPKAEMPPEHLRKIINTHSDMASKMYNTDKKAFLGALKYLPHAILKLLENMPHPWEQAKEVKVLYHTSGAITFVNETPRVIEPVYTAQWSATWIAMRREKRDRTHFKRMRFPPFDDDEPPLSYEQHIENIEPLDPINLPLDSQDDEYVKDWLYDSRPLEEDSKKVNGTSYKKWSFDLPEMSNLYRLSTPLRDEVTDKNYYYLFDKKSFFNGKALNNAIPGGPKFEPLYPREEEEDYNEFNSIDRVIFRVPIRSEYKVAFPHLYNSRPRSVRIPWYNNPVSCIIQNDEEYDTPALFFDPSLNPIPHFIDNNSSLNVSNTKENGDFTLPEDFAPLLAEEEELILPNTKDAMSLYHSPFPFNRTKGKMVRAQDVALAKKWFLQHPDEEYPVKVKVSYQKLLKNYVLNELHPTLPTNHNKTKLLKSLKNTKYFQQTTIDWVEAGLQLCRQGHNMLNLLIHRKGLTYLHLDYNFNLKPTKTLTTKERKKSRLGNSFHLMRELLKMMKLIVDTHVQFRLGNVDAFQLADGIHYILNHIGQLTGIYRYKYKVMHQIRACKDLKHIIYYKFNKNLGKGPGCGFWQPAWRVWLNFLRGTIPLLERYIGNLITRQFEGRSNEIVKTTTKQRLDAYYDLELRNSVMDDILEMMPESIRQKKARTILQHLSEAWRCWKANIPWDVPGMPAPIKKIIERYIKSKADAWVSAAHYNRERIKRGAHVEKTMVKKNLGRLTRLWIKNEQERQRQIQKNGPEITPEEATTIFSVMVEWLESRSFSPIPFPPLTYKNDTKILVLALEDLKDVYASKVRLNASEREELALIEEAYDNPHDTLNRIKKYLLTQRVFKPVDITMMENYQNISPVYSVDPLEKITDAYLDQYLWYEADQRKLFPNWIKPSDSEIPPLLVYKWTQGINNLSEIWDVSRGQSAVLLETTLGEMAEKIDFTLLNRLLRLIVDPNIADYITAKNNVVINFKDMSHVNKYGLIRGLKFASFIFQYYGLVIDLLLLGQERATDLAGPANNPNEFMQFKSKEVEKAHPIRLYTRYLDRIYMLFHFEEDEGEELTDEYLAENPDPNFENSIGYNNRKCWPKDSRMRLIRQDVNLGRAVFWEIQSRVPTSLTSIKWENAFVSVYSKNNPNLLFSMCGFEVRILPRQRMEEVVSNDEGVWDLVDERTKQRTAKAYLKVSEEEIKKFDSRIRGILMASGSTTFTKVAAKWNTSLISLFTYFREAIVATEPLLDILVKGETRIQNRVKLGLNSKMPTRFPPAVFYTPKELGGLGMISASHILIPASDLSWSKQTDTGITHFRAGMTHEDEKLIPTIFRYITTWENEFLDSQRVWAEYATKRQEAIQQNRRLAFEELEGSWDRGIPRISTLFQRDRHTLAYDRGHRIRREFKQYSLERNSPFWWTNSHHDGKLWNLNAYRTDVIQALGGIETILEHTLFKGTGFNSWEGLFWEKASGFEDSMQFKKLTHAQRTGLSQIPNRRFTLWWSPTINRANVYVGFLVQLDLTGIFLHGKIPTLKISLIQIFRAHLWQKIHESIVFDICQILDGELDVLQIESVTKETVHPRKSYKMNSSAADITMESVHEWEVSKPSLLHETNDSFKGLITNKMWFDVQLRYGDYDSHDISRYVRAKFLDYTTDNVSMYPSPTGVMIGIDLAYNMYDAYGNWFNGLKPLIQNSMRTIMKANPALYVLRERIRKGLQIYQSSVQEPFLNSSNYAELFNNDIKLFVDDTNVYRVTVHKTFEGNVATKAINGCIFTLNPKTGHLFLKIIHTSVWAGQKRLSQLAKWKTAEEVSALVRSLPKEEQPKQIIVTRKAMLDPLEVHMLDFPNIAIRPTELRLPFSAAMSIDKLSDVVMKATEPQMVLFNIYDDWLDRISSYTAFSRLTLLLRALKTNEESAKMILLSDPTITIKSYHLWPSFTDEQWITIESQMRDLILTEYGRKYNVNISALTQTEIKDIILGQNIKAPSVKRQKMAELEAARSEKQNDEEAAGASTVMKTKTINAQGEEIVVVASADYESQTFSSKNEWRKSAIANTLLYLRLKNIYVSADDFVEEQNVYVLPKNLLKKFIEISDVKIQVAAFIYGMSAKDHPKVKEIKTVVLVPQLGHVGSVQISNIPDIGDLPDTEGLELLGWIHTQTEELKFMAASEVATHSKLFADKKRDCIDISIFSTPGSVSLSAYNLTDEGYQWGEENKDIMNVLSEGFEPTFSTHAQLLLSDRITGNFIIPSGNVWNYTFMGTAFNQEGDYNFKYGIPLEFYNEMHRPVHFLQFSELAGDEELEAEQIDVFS

Biological target: Prp8 (S. cerevisiae (endogenous in the yeast strain)) (UniProt P33334)
Assay: co-IP; Prp40, Lea1-3HA or Prp8 pulled down with anti-Prp40, anti-HA or anti-Prp8 on Protein A/G Dynabeads from 1 mg of lysate protein of the Spt5-AID*-6Flag Lea1-3HA strain, 1 h at room temperature; lysis buffer 50 mM Tris-HCl pH 7.5, 150 mM NaCl, 0.2% NP-40; with or without RNase A (100 µg/mL); blot probed with anti-Flag; rabbit IgG as negative control

binding: binds
B1: Spt5-AID*-6Flag (protein, UniProt P27692 1-1063)
chain: MSDNSDTNVSMQDHDQQFADPVVVPQSTDTKDENTSDKDTVDSGNVTTTESTERAESTSNIPPLDGEEKEAKSEPQQPEDNAETAATEQVSSSNGPATDDAQATLNTDSSEANEIVKKEEGSDERKRPREEDTKNSDGDTKDEGDNKDEDDDEDDDDDDDDEDDDDEAPTKRRRQERNRFLDIEAEVSDDEDEDEDEEDSELVREGFITHGDDEDDEASAPGARRDDRLHRQLDQDLNKTSEEDAQRLAKELRERYGRSSSKQYRAAAQDGYVPQRFLLPSVDTATIWGVRCRPGKEKELIRKLLKKKFNLDRAMGKKKLKILSIFQRDNYTGRIYIEAPKQSVIEKFCNGVPDIYISQKLLIPVQELPLLLKPNKSDDVALEEGSYVRIKRGIYKGDLAMVDQISENNLEVMLKIVPRLDYGKFDEIDPTTQQRKSRRPTFAHRAPPQLFNPTMALRLDQANLYKRDDRHFTYKNEDYIDGYLYKSFRIQHVETKNIQPTVEELARFGSKEGAVDLTSVSQSIKKAQAAKVTFQPGDRIEVLNGEQRGSKGIVTRTTKDIATIKLNGFTTPLEFPISTLRKIFEPGDHVTVINGEHQGDAGLVLMVEQGQVTFMSTQTSREVTITANNLSKSIDTTATSSEYALHDIVELSAKNVACIIQAGHDIFKVIDETGKVSTITKGSILSKINTARARVSSVDANGNEIKIGDTIVEKVGSRREGQVLYIQTQQIFVVSKKIVENAGVFVVNPSNVEAVASKDNMLSNKMDLSKMNPEIISKMGPPSSKTFQQPIQSRGGREVALGKTVRIRSAGYKGQLGIVKDVNGDKATVELHSKNKHITIDKHKLTYYNREGGEGITYDELVNRRGRVPQARMGPSYVSAPRNMATGGIAAGAAATSSGLSGGMTPGWSSFDGGKTPAVNAHGGSGGGGVSSWGGASTWGGQGNGGASAWGGAGGGASAWGGQGTGATSTWGGASAWGNKSSWGGASTWASGGESNGAMSTWGGTGDRSAYGGASTWGGNNNNKSTRDGGASAWGNQDDGNRSAWNNQGNKSNYGGNSTWGGH
